# This list was built around the results that the source calls inconclusive (neither active nor inactive); the mix of calls is not that of the screen. Where the call is inconclusive, the potency comes from a doubtful curve fit. Active and inactive are the calls of the source. The calls were made as follows: active = hit-call score of the fitted dose curve at least 0.9, where 1 is the maximum; inconclusive = response in the unintended direction; inactive = score below 0.9.
# Assay: ACEA_AR_agonist_AUC_viability: ACEA Biosciences xCELLigence Real-Time Cell Analysis on Androgen Receptor Agonism for Viability (AID 2283775);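 as to AC50: viability read 80 hours after compound addition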
# Summary of the method: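 Real-time impedance tracking of 22Rv1 growth, readings every 5 min for 5 h then hourly; area-under-curve viability endpoint at 80 hours, relative to DMSO. Compounds at eight concentrations, 1:4 steps, top 100 uM, n = 2.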
SMILES,AC50,outcome
CCCCCc1ccc(Cl)cc1,inconclusive: 300 nM,
c1ccc(B(c2ccccc2)c2ccccc2)cc1,,inactive
CC1(C)NC(=O)N(c2ccc([N+](=O)[O-])c(C(F)(F)F)c2)C1=O,inconclusive: 520 nM,
Cc1cccc(O)c1C,inconclusive: 272 nM,
C=C(C)C(=O)O,,inactive
CN1CCN(c2ccccc2/C=C2\SCCN(c3ccc(Cl)c(Cl)c3)C2=O)CC1,active: 66300 nM,
O=c1[nH]cc(F)c(=O)[nH]1,active: 2420 nM,
COCC(C)OCC(C)OCC(C)O (configuration not stated),inconclusive: 25.5 nM,
C=C1CC[C@H]2C[C@@H]1C2(C)C,,inactive
C1CNCCN1,,inactive
C=CCCCCCCCCC(=O)O,inconclusive: 98.5 nM,
CCC(=C(c1ccc(O)cc1)c1ccc(OCCN(C)C)cc1)c1ccccc1,active: 6230 nM,
CCC(C)(C)C1CCC(=O)CC1,inconclusive: 202 nM,
COC(=O)c1c(C)cc(O)c(C)c1O,inconclusive: 253 nM,
CC1=CCC(C(C)C)=CC1,,inactive
COc1cccc([C@H](O)C2CCN(CCc3ccc(F)cc3)CC2)c1OC,active: 50000 nM,
Cc1cc(C)c(C(=O)O)c(C)c1,,inactive
CCCCCCCOC(=O)CCC,,inactive
C[C@]12C=CC(=O)C=C1CC[C@@H]1[C@@H]2C(=O)C[C@@]2(C)[C@H]1CC[C@]2(O)C(=O)CO,inconclusive: 32 nM,

SMILES,AC50,outcome
CC(C)C(=O)c1ccccc1,inconclusive: 197 nM,
NC(=NCCCCCCN=C(N)/N=C(\N)Nc1ccc(Cl)cc1)/N=C(\N)Nc1ccc(Cl)cc1,active: 10500 nM,
CC(=O)N1CCN(c2ccc(OC[C@H]3CO[C@](Cn4ccnc4)(c4ccc(Cl)cc4Cl)O3)cc2)CC1,active: 29200 nM,
O=C(O)c1ccccc1C(=O)OCc1ccccc1,inconclusive: 123 nM,
CC(C)OC(=O)C(C)(C)Oc1ccc(C(=O)c2ccc(Cl)cc2)cc1,active: 35400 nM,
Cc1ccc(C)c(C)c1,,inactive
COc1cc(O)c(C(=O)c2ccccc2)cc1S(=O)(=O)O,inconclusive: 14.4 nM,
C#C[C@]1(O)CC[C@H]2[C@@H]3CCC4=CC(=O)CC[C@@H]4[C@H]3CC[C@@]21C,inconclusive: 3.22 nM,
CC(C)c1ccc2cc(C(C)C)ccc2c1,inconclusive: 14.7 nM,
O=C(O)CS,inconclusive: 29800 nM,
COC(=O)c1ccc(O)cc1,,inactive
NCC1(Cc2noc(=O)[nH]2)CCCCC1,,inactive
CCCCCCC(C)(C)C(=O)O,inconclusive: 16600 nM,
CCCC(=O)OCC,inconclusive: 9920 nM,
CC#C[C@]1(O)CC[C@H]2[C@@H]3CCC4=CC(=O)CCC4=C3[C@@H](c3ccc(N(C)C)cc3)C[C@@]21C,active: 28100 nM,
CC(C)c1cccc(C(C)C)c1,inconclusive: 0.284 nM,
Nc1nc(=S)c2[nH]cnc2[nH]1,active: 655 nM,
CCCCCCCCC,,inactive

# Shown with tabs: entries from further up
SMILES	AC50	outcome
O=c1[nH]cc(F)c(=O)[nH]1	active: 2420 nM	
C=CCCCCCCCCC(=O)O	inconclusive: 98.5 nM	
